The subject of the test is BDF1 mice, s.c. Lewis lung carcinoma, T/C %. Put plainly: NCI In Vivo Anticancer Drug Screen. Data for tumor model Lewis Lung Carcinoma (subcutaneous) in B6D2F1 (BDF1) mice. The procedure, abridged:
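Tumor-bearing mice were treated with test compound, and either survival or tumor size was recorded. Values are the treated-group measurement divided by that of the vehicle-treated control group.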

Where [1] appears, read: T/C endpoint: median survival time, dose: 0.25 mg/kg/injection, schedule: Q01DX009 (ip), vehicle: saline, higher T/C = longer survival.
The mark [2] stands for this setting: T/C endpoint: median survival time, dose: 0.5 mg/kg/injection, schedule: Q01DX009 (ip), vehicle: saline, higher T/C = longer survival.
[3] abbreviates: T/C endpoint: median survival time, dose: 1.0 mg/kg/injection, schedule: Q01DX009 (ip), vehicle: saline with Tween-80, higher T/C = longer survival.
Where [4] appears, read: T/C endpoint: median survival time, dose: 2.0 mg/kg/injection, schedule: Q01DX009 (ip), vehicle: saline, higher T/C = longer survival.
The mark [5] stands for this setting: T/C endpoint: median survival time, dose: 25.0 mg/kg/injection, schedule: Q01DX009 (ip), vehicle: Klucel (hydroxypropylcellulose) (HPC), higher T/C = longer survival.
[6] abbreviates: T/C endpoint: median survival time, dose: 50.0 mg/kg/injection, schedule: Q01DX009 (ip), vehicle: Klucel (hydroxypropylcellulose) (HPC), higher T/C = longer survival.
The mark [7] stands for this setting: T/C endpoint: median survival time, dose: 100.0 mg/kg/injection, schedule: Q01DX009 (ip), vehicle: Klucel (hydroxypropylcellulose) (HPC), higher T/C = longer survival.
[8] abbreviates: T/C endpoint: median survival time, dose: 200.0 mg/kg/injection, schedule: Q01DX009 (ip), vehicle: Klucel (hydroxypropylcellulose) (HPC), higher T/C = longer survival.
Setting [9] is: T/C endpoint: median survival time, dose: 400.0 mg/kg/injection, schedule: Q01DX009 (ip), vehicle: Klucel (hydroxypropylcellulose) (HPC), higher T/C = longer survival.

The list is a part of this screen's results and no random one: it gathers tests that were run many times, whatever their T/C, doses with no T/C, and many T/C values between a quarter and a half above the control. Further doses and runs are listed elsewhere. T/C is the treated group as % of the vehicle group. Schedules are NCI's codes, read here as Q, the interval in days (D) or hours (H), X, the number of doses. Some entries give survivors of the animals treated and no T/C: the source files T/C as zero there, which appears to mark a toxic dose or a test without result, not a measured value. Some survivor counts are full or nearly so, which does not show that the dose was tolerated: the source hardly ever lists a survival T/C far under the control, and the zero likely stands for such cases as well. Survivors were counted at the toxicity check, usually on the fifth day, unless a day is given; later deaths do not show. Some doses were run more than once; the values are given in rising order. Signs of the kind (2×) give the number of equal values in this list. Where survival is the endpoint, the PubChem record calls one and a half times the control and up active, and a quarter to a half above the control has no call in these data; cut-offs in other NCI protocols can differ. Some T/C values are followed by the survivors on the day toxicity was checked, most often the fifth; without a count, all were alive then.

For the compound `CCCCCCCCCCCCSC(=N)N`, the survivor count (T/C endpoint: median survival time, dose: 50.0 mg/kg/injection, schedule: Q01DX009 (ip), vehicle: saline with Tween-80, higher T/C = longer survival) is recorded as 1 of 10.
With `C1CN1c1nc(N2CC2)nc(N2CC2)n1`, the survivor count reads like this: (T/C endpoint: mean tumor weight, dose: 1.0 mg/kg/injection, schedule: Q01DX011 (ip), vehicle: saline, higher T/C = larger tumour) 1 of 10 and 4 of 10; under setting [1], 9 of 10 and 10 of 10; under setting [2], 8 of 10 and 9 of 10; (T/C endpoint: median survival time, dose: 0.8 mg/kg/injection, schedule: Q01DX009 (ip), vehicle: saline, higher T/C = longer survival) 10 of 10; under setting [3], 10 of 10; (T/C endpoint: median survival time, dose: 1.0 mg/kg/injection, schedule: Q01DX009 (ip), vehicle: saline, higher T/C = longer survival) 6 of 10, 9 of 10, 10 of 10, 9 of 9. Also, the survivor count is, setting by setting: under setting [4], 0 of 10; (T/C endpoint: median survival time, dose: 2.0 mg/kg/injection, schedule: Q08DX002 (ip), vehicle: saline, higher T/C = longer survival) 8 of 9 and 10 of 10; (T/C endpoint: median survival time, dose: 4.0 mg/kg/injection, schedule: Q08DX002 (ip), vehicle: saline with Tween-80, higher T/C = longer survival) 9 of 10; (T/C endpoint: median survival time, dose: 4.0 mg/kg/injection, schedule: Q08DX002 (ip), vehicle: saline, higher T/C = longer survival) 7 of 10 and 10 of 10; (T/C endpoint: median survival time, dose: 1000.0 micrograms/kg/injection, schedule: Q01DX009 (ip), vehicle: saline, higher T/C = longer survival) 10 of 10; (T/C endpoint: median tumor weight (est.), dose: 4.0 mg/kg/injection, schedule: Q08DX002 (ip), vehicle: saline with Tween-80, higher T/C = larger tumour) 3 of 10. In addition, the T/C is 132 % of control (T/C endpoint: median survival time, dose: 0.12 mg/kg/injection, schedule: Q01DX009 (ip), vehicle: saline with Tween-80, higher T/C = longer survival); 128 and 143 % of control (T/C endpoint: median survival time, dose: 0.13 mg/kg/injection, schedule: Q01DX009 (ip), vehicle: saline, higher T/C = longer survival); 136 % of control (T/C endpoint: median survival time, dose: 0.2 mg/kg/injection, schedule: Q01DX009 (ip), vehicle: saline, higher T/C = longer survival); 136 % of control (T/C endpoint: median survival time, dose: 0.25 mg/kg/injection, schedule: Q01DX009 (ip), vehicle: saline with Tween-80, higher T/C = longer survival); 125 and 147 % of control under setting [1]; 89 [9 of 10 alive] and 103 % of control under setting [2]. Moreover, the T/C (T/C endpoint: median survival time, dose: 125.0 micrograms/kg/injection, schedule: Q01DX009 (ip), vehicle: saline, higher T/C = longer survival) is 127 % of control.
With `Nc1nc(=S)c2[nH]c(N=Nc3ccc(S(=O)(=O)Nc4ncccn4)cc3)nc2[nH]1`, the survivor count is listed as 10 of 10 (T/C endpoint: median survival time, dose: 12.5 mg/kg/injection, schedule: Q01DX009 (ip), vehicle: Klucel (hydroxypropylcellulose) (HPC), higher T/C = longer survival); 10 of 10 under setting [5]; 10 of 10 under setting [6]; 10 of 10 under setting [7]; 10 of 10 under setting [8].
For the compound `O=[N+]([O-])c1ccc(/C=N\Nc2ccc([N+](=O)[O-])cn2)cc1`, the survivor count under setting [6] was 9 of 10 and 10 of 10; the survivor count under setting [7] is 9 of 10; the survivor count under setting [8] is reported as 6 of 10; the survivor count under setting [9] is reported as 4 of 10.
With `COC(C(=O)C(O)C(C)O)C1Cc2cc3cc(OC4CC(OC(C)=O)C(OC5CC(O)C(OC)C(C)O5)C(C)O4)cc(O)c3c(O)c2C(=O)C1OC1CC(OC2CC(OC3CC(C)(O)C(OC(=O)C(C)C)C(C)O3)C(O)C(C)O2)C(O)C(C)O1` (centres undefined), the survivor count is 9 of 10 under setting [3] and 8 of 10 (T/C endpoint: median survival time, dose: 4.0 mg/kg/injection, schedule: Q01DX009 (ip), vehicle: saline with Tween-80, higher T/C = longer survival).
Turning to `CC(CCc1cccc2ccccc12)(C(=O)O)C(=O)O`, the survivor count (T/C endpoint: mean tumor weight, dose: 125.0 mg/kg/injection, schedule: Q01DX011 (ip), vehicle: carboxymethylcellulose (CMC), higher T/C = larger tumour) is reported as 2 of 6; the survivor count (T/C endpoint: mean tumor weight, dose: 250.0 mg/kg/injection, schedule: Q01DX011 (ip), vehicle: carboxymethylcellulose (CMC), higher T/C = larger tumour) was 3 of 6; the survivor count (T/C endpoint: mean tumor weight, dose: 500.0 mg/kg/injection, schedule: Q01DX011 (ip), vehicle: carboxymethylcellulose (CMC), higher T/C = larger tumour) is reported as 1 of 6.
With `COC1=CC(=O)N(C(=O)C2CSC(C(CO)NC(=O)c3csc(/C=N/O)n3)=N2)C1` (centres undefined), the survivor count under setting [9] was 10 of 10.
For the compound `OC(COc1cccc2ccccc12)CN(CCCl)CCCl` (centres undefined), the survivor count runs as follows: (T/C endpoint: median survival time, dose: 10.0 mg/kg/injection, schedule: Q01DX009 (ip), vehicle: Klucel (hydroxypropylcellulose) (HPC), higher T/C = longer survival) 8 of 10 and 10 of 10; (T/C endpoint: median survival time, dose: 20.0 mg/kg/injection, schedule: Q01DX009 (ip), vehicle: Klucel (hydroxypropylcellulose) (HPC), higher T/C = longer survival) 2 of 10 and 7 of 10; (T/C endpoint: median survival time, dose: 40.0 mg/kg/injection, schedule: Q01DX009 (ip), vehicle: Klucel (hydroxypropylcellulose) (HPC), higher T/C = longer survival) 0 of 10 (2×).
Regarding `[Cl][Ni+2][Cl].[NH-]CCN1CC1`, the survivor count is 10 of 10 (T/C endpoint: median survival time, dose: 12.5 mg/kg/injection, schedule: Q01DX009 (ip), vehicle: saline, higher T/C = longer survival); 1 of 10 and 10 of 10 (T/C endpoint: median survival time, dose: 25.0 mg/kg/injection, schedule: Q01DX009 (ip), vehicle: saline, higher T/C = longer survival).
In the case of `CCCCCCCCCCCCCCCCCC(=O)NN`, the T/C under setting [5] was 125 % of control, the T/C under setting [6] was 125 % of control [9 of 10 alive] and the T/C under setting [7] was 135 % of control.
On to `C1CC[N-]CC1.C1CC[N-]CC1.C1CC[N-]CC1.[Cl][Rh]([Cl])[Cl]`, for which the survivor count is on record as 10 of 10 under setting [4] and 3 of 10 (T/C endpoint: median survival time, dose: 128.0 mg/kg/injection, schedule: Q01DX009 (ip), vehicle: saline, higher T/C = longer survival).
As for `C1=CC2(OCCO2)C2CC=CC3(OCCO3)C2C1` (centres undefined), the survivor count runs as follows: under setting [6], 10 of 10; under setting [8], 2 of 10.
Consider `CC1CN=C(C(=O)C(C)C2CCC3C4CC=C5CC(O)CCC5(C)C4CCC23C)C1` (centres undefined), for which the T/C (T/C endpoint: mean tumor weight, dose: 25.0 mg/kg/injection, schedule: Q01DX011 (sc), vehicle: steroid suspending solution, evaluated on day 12, higher T/C = larger tumour) was 125 % of control and the T/C (T/C endpoint: mean tumor weight, dose: 50.0 mg/kg/injection, schedule: Q01DX011 (sc), vehicle: steroid suspending solution, evaluated on day 12, higher T/C = larger tumour) is 137 % of control.
